Holding throughout (assay): biochemical
The target of one assay is T1, ZmDRIK1-K217-P492 (Zea mays, UniProt C0P4K9).
T1 construct: kinase domain, K217-P492
T1 sequence (C0P4K9 1-514): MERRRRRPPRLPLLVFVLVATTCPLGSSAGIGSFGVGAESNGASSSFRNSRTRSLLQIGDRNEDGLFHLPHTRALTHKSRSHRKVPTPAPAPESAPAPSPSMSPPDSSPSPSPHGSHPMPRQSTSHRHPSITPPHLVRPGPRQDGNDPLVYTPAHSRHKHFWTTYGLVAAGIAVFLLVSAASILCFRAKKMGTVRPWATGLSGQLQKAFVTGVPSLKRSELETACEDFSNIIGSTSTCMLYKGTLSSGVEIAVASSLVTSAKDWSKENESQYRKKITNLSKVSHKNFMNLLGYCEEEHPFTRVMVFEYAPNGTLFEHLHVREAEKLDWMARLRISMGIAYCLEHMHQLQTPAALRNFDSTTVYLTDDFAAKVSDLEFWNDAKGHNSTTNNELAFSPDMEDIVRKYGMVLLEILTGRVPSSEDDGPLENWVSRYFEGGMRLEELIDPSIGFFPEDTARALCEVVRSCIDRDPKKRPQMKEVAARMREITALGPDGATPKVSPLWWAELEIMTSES
Particulars: read-out: dTm B, sheet ZmDRIK1-K217-P492;; DSF, Boltzmann fit, 0.1% DMSO.

The target of a further assay is T2, ZmDRIK1-R187-P492 (Zea mays, UniProt C0P4K9).
T2 construct: kinase domain, R187-P492
T2 sequence (C0P4K9 1-514): T1 sequence (C0P4K9 1-514)
The conditions noted are these: read-out: dTm B, DSF, Boltzmann fit, 0.1% DMSO.

In assay [1] the target is T3, ZmDRIK1 (DROUGHT RESPONSIVE INACTIVE KINASE 1), kinase domain (Zea mays, UniProt C0P4K9).
T3 construct: gene ZEAMMB73_Zm00001d028770; ZmDRIK1-KD R187-S514 (kinase domain)
T3 sequence (C0P4K9 187-514): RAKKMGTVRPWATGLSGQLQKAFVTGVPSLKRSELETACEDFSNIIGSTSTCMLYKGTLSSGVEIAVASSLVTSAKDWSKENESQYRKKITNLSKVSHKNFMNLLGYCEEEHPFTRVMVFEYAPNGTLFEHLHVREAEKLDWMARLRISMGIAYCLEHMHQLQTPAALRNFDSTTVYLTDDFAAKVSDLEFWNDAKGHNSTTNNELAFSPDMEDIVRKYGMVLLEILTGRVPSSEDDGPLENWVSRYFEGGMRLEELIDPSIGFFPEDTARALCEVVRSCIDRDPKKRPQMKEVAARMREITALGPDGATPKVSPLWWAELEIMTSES
Particulars: read-out: dTm B, sheet ZmDRIK1-R187-S514;; DSF, Boltzmann fit, 0.1% DMSO.

The next assay has as its target T4, ZmDRIK1-K217-S514 (Zea mays, UniProt C0P4K9).
T4 construct: kinase domain, K217-S514
T4 sequence (C0P4K9 1-514): T1 sequence (C0P4K9 1-514)
Particulars: read-out: dTm B, sheet ZmDRIK1-K217-S514;; DSF, Boltzmann fit, 0.1% DMSO.

Molecules are shown by their SMILES.

These results are taken from article PMC7158045 (BMC Plant Biology, 2020).

With `Nc1ccc(C(=O)Nc2cccc(-c3nc(N4CCOCC4)c4oc5ncccc5c4n3)c2)cn1` [YM201636], the ΔTm at 10 µM on ZmDRIK1-K217-P492 is -1.07 °C; at ZmDRIK1-R187-P492 it was -0.352 °C; in assay [1], -0.543 °C; on ZmDRIK1-K217-S514, -0.275 °C.
Take `Nc1nc(N)c2nc(-c3cccc(O)c3)cnc2n1` [TG100713]: the ΔTm at 10 µM on ZmDRIK1-K217-P492 was -1.25 °C; at ZmDRIK1-R187-P492 it was -0.282 °C; in assay [1] it was -0.479 °C; at ZmDRIK1-K217-S514, -0.195 °C.
